We go through 1 molecule from US9381193B2, “Contraceptive methods and compositions” (WASHINGTON UNIVERSITY, priority 2011, dated 2016).

Common to all, as to type: in vivo, mouse
The subject of one data set is denuded GV oocytes. The data set is described as follows: ATP and citrate levels in single denuded GV oocytes of DHEA-fed mice. An excerpt:
COCs were collected following superovulation with PMSG. Ovaries were removed and placed in M2 media (Sigma, St. Louis, Mo., USA). COCs were obtained by rupture of antral follicles with a syringe and needle. To collect denuded germinal vesicle (GV) oocytes, the cumulus cells were removed by gentle pipetting. The oviducts were removed from PMSG- and hCG-primed mice. The ampulla of the oviduct was punctured to release the clutch of ovulated oocytes 24 hr after hCG.
Denuded oocytes or cultured blastocysts were frozen on a glass slide with liquid nitrogen and dried overnight at −35° C. under vacuum. Individual oocytes or blastocysts were extracted in nanoliter volume under oil. Assays were designed to measure ATP, citrate and G6PDH by linking with NAD/NADH or NADP/NADPH which are enzymatically amplified in a cycling reaction allowing products to be measured by fluorometry.

Data set [1] relates to FVB/NJ mice. The data set is described as follows: Serum hormone concentration in DHEA-fed mice (ELISA). An excerpt:
(§1) Female FVB/NJ mice were obtained from Jackson Laboratories (Bar Harbor, Me., USA). Regular rodent chow was supplemented with DHEA at 0.01%, 0.1% and 0.6% w/w. Three-week-old mice had access to food and water ad libitum. Mice were fed control or DHEA-supplemented chow for two weeks. The Animal Studies Committee at Washington University School of Medicine reviewed and approved all animal experiments. Animals were maintained according to the Guide for the Care and Use of Laboratory Animals provided by the Institute for Laboratory Animal Research.
Control and DHEA-fed mice were superovulated with 10 IU pregnant mare serum gonadotropin (PMSG) by i.p. injection. DHEA, estradiol and testosterone serum concentrations were measured 48 hours later. For progesterone concentrations, mice were given an i.p. injection of 10 IU hCG 48 hours after PMSG and blood was collected 24 hours later. Mice were anesthetized with 50 μl ketamine and xylazine (1:1) and blood was collected by cardiac puncture. Serum was separated by centrifugation and stored at −20° C. ELISA assays were used to determine serum hormone concentrations (Alpco, Salem, N.H., USA).

Data set [2] concerns FVB/NJ mice. The data set can be described thus: Ovarian histology and follicle counts in DHEA-fed mice.
Excerpt: as §1
For histological evaluation, one ovary from five mice in each group was fixed in Bouin's solution, transferred to 70% ethanol then embedded in paraffin and serial sectioned at 10 microns. Every tenth section was kept and stained with hematoxylin and eosin. Follicles with visible nuclei were classified as primordial, primary, secondary or antral. Corpora lutea were also counted. Follicle counts from each classification were summed for each mouse.

The test system of data set [3] is FVB/NJ mice. The data set is described as follows: Artificially induced deciduoma in ovariectomized mice. The procedure:
This induced deciduoma model allowed the study of the effect of increased DHEA on implantation independently of embryo development and ovarian function. Female mice 6-8 weeks of age were ovariectomized and rested for 2 weeks. […] At day 2 before induction, the experimental mice also began receiving DHEA at 2 mg/100 g of body weight. The control mice received no DHEA. At day 0, one uterine horn in each animal was subjected to a physical stimulus, 100 μL sesame seed oil injection, to induce a deciduoma. The second horn was left as the unstimulated internal control for each mouse. Day 0 in this case is equivalent to the day of embryo implantation in a physiological mouse pregnancy, which is 4 days post coitus. Five days after the oil injection, uterine horns were dissected out. First the gross anatomies of the uteri were assessed. […] In the same line of experiments, the serum hormone levels were also measured to confirm that findings were strictly the result of increased levels of DHEA.
Decidualization in vivo under chronically elevated levels of DHEA was also tested. […] A quantitative analysis of the decidual reaction in shown in FIG. 8B, where the mass of the uterine horns is shown. […]
To generate deciduomas 7-8 wk-old female FVB/NJ mice were used and treated as described previously. […] Serum DHEA, E2 and P4 levels were analyzed by ELISA assays (Alpco Immunoassays).

Take `C[C@]12CC[C@H](O)CC1=CC[C@@H]1[C@@H]2CC[C@]2(C)C(=O)CC[C@@H]12` [DHEA, dehydroepiandrosterone]: the results for the “Decrease in ATP levels (trend, p=0.096)” value with denuded GV oocytes (0.01% DHEA group) and with denuded GV oocytes (0.1% DHEA group) were “four percent” and “six percent”, respectively. For the same molecule, the Serum estradiol result in the data set on FVB/NJ mice [1] (0.1% and 0.6% DHEA diets) was “significantly elevated”. The Serum testosterone entry in the data set with FVB/NJ mice [1] (DHEA diet treatment groups) is reported as “elevated in the treatment groups”. For the same molecule, in the data set on FVB/NJ mice [1] (DHEA diets, 24 hours after hCG), the “Serum progesterone (marker of ovulation)” value is reported as “lower in mice exposed to DHEA in a dose-dependent fashion”. Further, in the data set on FVB/NJ mice [2], the “Number of secondary follicles vs regular chow” value is given as “more secondary follicles, although not statistically significant”. Further, the “Number of corpora lutea vs regular chow” value in the data set on FVB/NJ mice [2] (significant only at 0.6%) is on record as “fewer corpora lutea”. Further, the “Body fat gain of ovariectomised mice” value with FVB/NJ mice [3] (0.6% DHEA diet) was “decreases this gain in body fat levels”. In the data set on FVB/NJ mice [3] (DHEA-treated group), the “Serum levels of E2 and P4 vs control” value was “equal”.
